Laboratory results reported in patent publication US9459246B2, “Induced intercellular communication” (Nodality, Inc., priority 2009, dated 2016).
At least one compound was matched to its structure with a doubt left.

How the values were obtained:
[1] = test system: PBMCs; experiment: SCNP intracellular signaling readouts in PBMCs treated 24 hours with modulator (SAg or LPS) plus inhibitor (Example 9, FIGS. 18-21); type: cell-based, human
[2] = test system: PBMCs; experiment: SCNP of immunomodulator signaling nodes in PBMC subpopulations of 60 healthy donors (Example 16); type: cell-based, human; settings: 5 μg/ml, 15 min

SMILES	B cell PI3K pathway ([1]; LPS modulation, FIG. 21)	STAT signaling / STAT phosphorylation ([1]; LPS modulation, FIG. 21)	PI3K pathway (p-Akt and p-S6) ([1]; SAg modulation, FIG. 19)	STAT signaling ([1]; SAg modulation, FIG. 19)	lymphocyte signaling ([1]; SAg modulation, FIG. 20)	pErk and pNFκB induction [2]
CC[C@H](Nc1ncnc2[nH]cnc12)c1nc2cccc(F)c2c(=O)n1-c1ccccc1 [CAL-101]	blocked	partial reduction	inhibited	partial inhibition	inhibited	
CCOCc1nc2c(N)nc3ccccc3c2n1CC(C)(C)O [R848, Resiquimod]						induced pErk and pNFκB only in B cells and monocytes
